PubChem BioAssay AID1347131 (National Center for Advancing Translational Sciences (NCATS), 2019)
Out of some 410,000 compounds screened, about 2,000 (0.49%) were called active. Inconclusive means that the source gave no clear call. Such entries were picked first, then a sample of the others. The call rests on the fitted dose curve; tested in HEK293 reporter line. A potency beside an inconclusive call is a rough fit, not a confirmed value.
Potency means the concentration at half of the fitted maximal effect.

Experiment: qHTS Assay for Foot and Mouth Disease Virus Antivirals: Primary Screen against the MLPCN compound library; further: nearly all actives have a fitted effect of over 55% in size
Details: FMDV antiviral cell-based qHTS; activity, negative = inhibition: at 57.9 µM (top of the series)
With `O=C(CCSc1nc2ccccc2s1)N/N=C/c1c(O)ccc2ccccc12` the Potency was inconclusive: 14.1 µM [inhibitor, partial curve].
For `O=C(CN1CCN(c2ccc(C(F)(F)F)cn2)CC1)NCc1ccc2c(c1)OCO2`, the Potency was inconclusive: 25.1 µM [inhibitor, partial curve, poor fit].
With `Nc1ncnc(Sc2ncccn2)c1[N+](=O)[O-]` the Potency was inconclusive: 31.6 µM [inhibitor, partial curve, poor fit].
In the case of `CSC1=NSC2=NC(=O)/C(=C\c3cccs3)C(=N)N12`, the Potency is reported as inconclusive: 12.6 µM [inhibitor, single point].
In the case of `CCS(=O)(=O)c1ncc(Cl)c(C(=O)Nc2ccc(S(=O)(=O)N3CCC(C)CC3)cc2)n1`, the Potency is reported as inconclusive: 14.1 µM [inhibitor, partial curve, poor fit].
In the case of `O=C1CCCc2cc(S(=O)(=O)N3CCCC(C(=O)Nc4ccc(F)c(Cl)c4)C3)ccc2N1` (stereo not drawn), the Potency is reported as inconclusive: 31.6 µM [inhibitor, partial curve, poor fit].
For `CN(c1ccccc1)S(=O)(=O)c1cccc(C(=O)Nc2cccc(C(=O)NC3CC3)c2)c1`, the “activity, negative = inhibition” value was inactive: -47.3%.
In the case of `O=C(O)CSc1nnc(-c2ccc(Cl)cc2Cl)n1Cc1ccccc1`, the Potency is reported as inconclusive: 3.98 µM [inhibitor, partial curve].
With `O=C1N=c2ccc([N+](=O)[O-])cc2=C1c1sc(=O)[nH]c1O` the Potency was inconclusive: 12.6 µM [inhibitor, partial curve, poor fit].
In the case of `COc1ccc(CCNC(=O)CSc2cn(CCNC(=O)c3cccc(C(F)(F)F)c3)c3ccccc23)cc1OC`, the Potency is reported as inconclusive: 22.4 µM [inhibitor, partial curve, poor fit].
In the case of `COc1ccc(OC)c(NC(=O)CSc2ncnc3c2cnn3-c2ccccc2Cl)c1`, the Potency is reported as inconclusive: 7.94 µM [inhibitor, partial curve, poor fit].
For `CN(C)CCCNS(=O)(=O)c1ccc(NC2CCCCCC2)c([N+](=O)[O-])c1`, the Potency was inconclusive: 11.2 µM [inhibitor, partial curve].
With `N/C(=N\N=C\c1cccc(O)c1)c1nonc1N` the Potency was inconclusive: 12.6 µM [inhibitor, single point].
With `Cc1cc(C)cc(NC(=O)c2ccc3c(c2)nnn3C2CCCC2)c1` the “activity, negative = inhibition” value was inactive: -30%.
With `CCS(=O)(=O)c1ccc(O)c(Nc2cc(C)nc(SC)n2)c1` the Potency was inconclusive: 14.1 µM [inhibitor, partial curve].
For `CC(C)N1C(=O)/C(=C\c2nc3ccccc3c(=O)n2-c2ccccc2)c2ccccc21`, the Potency was inconclusive: 17.8 µM [inhibitor, partial curve, poor fit].
In the case of `CCOC(=O)c1c(NC(=O)CSc2ncnc3ccccc23)sc(C(C)=O)c1C`, the Potency is reported as inconclusive: 25.1 µM [inhibitor, partial curve, poor fit].
For `COc1cc(C(=S)N2CCCCC2)ccc1OCC(=O)Nc1ccc(F)cc1`, the Potency was inconclusive: 10 µM [inhibitor, partial curve].
With `CC1CCN(c2ccc(-c3cccc(NC(=O)C(F)(F)F)c3)nn2)CC1` the Potency was inconclusive: 15.8 µM [inhibitor, partial curve, poor fit].
For `O=C(Nc1ccc(Cl)cc1)Nc1cccc(C(=O)O)c1`, the Potency was inconclusive: 8.91 µM [inhibitor, full curve, poor fit].
For `O=C(NC(Nc1nc2ccc([N+](=O)[O-])cc2s1)(C(F)(F)F)C(F)(F)F)c1ccccc1Cl`, the Potency was inconclusive: 2.51 µM [inhibitor, partial curve, poor fit].
For `Cc1[nH]c2ccccc2c1C(=O)COC(=O)c1c(-c2c(F)cccc2Cl)noc1C`, the Potency was inconclusive: 31.6 µM [inhibitor, partial curve, poor fit].
In the case of `COc1ccc(C2CC(=O)N(Cc3ccc(F)cc3)c3ccccc3S2)cc1OC` (stereo not drawn), the Potency is reported as inconclusive: 39.8 µM [inhibitor, partial curve, poor fit].
In the case of `Cc1sc(NC(=O)c2ccco2)c(C(c2cccnc2)N2CCC(C)CC2)c1C` (stereo not drawn), the Potency is reported as inconclusive: 17.8 µM [inhibitor, partial curve, poor fit].
In the case of `Cc1ccc(-c2cc(-c3ccccc3)cc(-c3ccccc3)[n+]2-c2ccccc2C(=O)O)cc1`, the “activity, negative = inhibition” value is reported as inactive: -33.8%.
For `COc1ccc(NC(=O)COc2cccc3c2OC(C)(C)C3)cc1OC`, the Potency was inconclusive: 22.4 µM [inhibitor, partial curve, poor fit].
For `Cc1ccccc1-c1noc(CSc2nc(-c3ccc(F)cc3)cc(=O)[nH]2)n1`, the Potency was inconclusive: 8.91 µM [inhibitor, partial curve].
For `O=C(Nc1ccc2c(c1)CCC2)c1ccccc1F`, the Potency was inconclusive: 15.8 µM [inhibitor, partial curve].
With `c1ccc(N2CCN(c3ncnc4c3oc3ccccc34)CC2)cc1` the Potency was inconclusive: 35.5 µM [inhibitor, partial curve, poor fit].
For `O=C(Cn1ncc(Cl)c(Cl)c1=O)c1ccc(Cl)cc1`, the Potency was inconclusive: 35.5 µM [inhibitor, partial curve, poor fit].
For `COc1cc2ncnc(NCc3ccc(C)o3)c2cc1OC`, the Potency was inconclusive: 17.8 µM [inhibitor, partial curve].
With `CCCCCOc1ccc(C2C(C(C)=O)=C(C)Nc3ncnn32)cc1OC` (stereo not drawn) the activity, negative = inhibition was inconclusive: -35.5% [inhibitor].
With `COc1ccc(CN2CCNC(=O)C2CC(=O)NC2CCCC2)c(OC)c1` (stereo not drawn) the “activity, negative = inhibition” value was inactive: -15.3%.
In the case of `CC(N)Cc1c[nH]c2c1ccc1ccccc12` (stereo not drawn), the Potency is reported as inconclusive: 10 µM [inhibitor, partial curve].
With `COc1ccc(S(=O)(=O)N2CCC(c3nnnn3-c3ccccc3)CC2)cc1OC` the Potency was inconclusive: 25.1 µM [inhibitor, partial curve, poor fit].
In the case of `Cc1ccc(/C=C/C(=O)N2CC(C)CC(C)C2)o1` (stereo not drawn), the activity, negative = inhibition is reported as inconclusive: -31.8% [inhibitor].
In the case of `CCOC(=O)N1CCN(Cc2cc(=O)oc3ccc4ccccc4c23)CC1`, the Potency is reported as inconclusive: 20 µM [inhibitor, partial curve, poor fit].
With `O=C(OC1CCN(CCCl)CC1)C(c1ccccc1)c1ccccc1` the Potency was inconclusive: 15.8 µM [inhibitor, partial curve, poor fit].
